Data source: PubChem BioAssay AID1671195 (Yale University, 2021)

Purpose: 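Genes whose knockdown alters LDL uptake in liver cancer cells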 (primary screen)
Cell system: human Huh7 hepatoma cells
Reagents: siRNA pool against human genes, 18 nM
Duration: about 2 to 2.5 days of knockdown, then 8 h LDL uptake
Challenge: DiI-labelled LDL at 30 µg/ml for 8 h, in lipoprotein-deficient serum medium
Read-out: 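Fluorescent LDL signal imaged in cells, scaled to the plate median, robust z-score for each replicate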
Direction: robust z-score: higher = more LDL uptake after knockdown
Rule for the call: 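Active when two or more replicates show a robust z-score above 2 or below -2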
Shown is one part, drawn at random, of about 22,000 deposited reagents. Over the whole deposit, about 1,510 (6.9%) are marked active. 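Active includes knockdowns raising or lowering LDL uptake; positive z-scores mean more uptake, negative mean less.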 Reagents against one gene are numbered here. No sequences are given here.

Target gene | pool no. | robust z-score, replicate 1 | robust z-score, replicate 2 | robust z-score, replicate 3 | Call
IDNK | 1 | 0.81 | 1.1 | 1.18 | inactive
FEM1A | 1 | 0.121 | -0.195 | -0.873 | inactive
MN1 | 1 | 0.281 | 0.247 | 0.719 | inactive
P3H4 | 1 | 0.175 | 0.463 | -0.202 | inactive
SYTL2 | 1 | 1.76 | 0.562 | 0.903 | inactive
STXBP6 | 1 | 0.127 | 0.604 | -0.846 | inactive
SPMAP1 | 1 | -1.63 | -1.59 | -1.77 | inactive
DRD5P2 | 1 | 0.142 | -1.1 | -0.026 | inactive
LOC440960 (retired record) | 1 | 1.02 | 1.11 | 1.07 | inactive
LSM4 | 1 | 0.472 | 0.764 | 1.05 | inactive
HACL1 | 1 | 0.371 | 0.452 | 2.59 | inactive
SPINK5 | 1 | -0.875 | -0.802 | -0.7 | inactive
SUPT20HL2 | 1 | 0.508 | 0.401 | 0.761 | inactive
SUPT20HL2 | 2 | -0.59 | -0.273 | -0.399 | inactive
PRAMEF8 | 1 | 0.728 | 0.668 | 0.619 | inactive
PRAMEF8 | 2 | -0.362 | -0.424 | 0.0976 | inactive
EIF4EBP1 | 1 | -1.36 | -1.45 | -1.13 | inactive
TMEM47 | 1 | -0.73 | -0.181 | -0.334 | inactive
FOXI3 | 1 | 0.144 | -0.187 | -0.0771 | inactive
RBM46 | 1 | -0.794 | -0.699 | -0.415 | inactive
TM4SF1 | 1 | 0.23 | 1.28 | 0.472 | inactive
LRRC47 | 1 | -1.81 | -0.937 | -1.09 | inactive
MTMR12 | 1 | 1.85 | 1.73 | 2.28 | inactive
OR4K13 | 1 | -0.113 | -0.521 | -0.247 | inactive
IRS4 | 1 | 1.17 | 2.19 | 2.12 | active
ESRRG | 1 | 0.387 | 1.04 | 0.545 | inactive
C11orf16 | 1 | -0.405 | 0.329 | 1.17 | inactive
AMOTL2 | 1 | 0.033 | 1.03 | 0.502 | inactive
ATOH7 | 1 | -0.822 | -0.736 | -0.616 | inactive
MAML1 | 1 | -0.771 | -0.844 | 0.253 | inactive
PPIF | 1 | -0.899 | -0.524 | -0.842 | inactive
SNRPG | 1 | 3.09 | 3.77 | 2.53 | active

Just “robust z-score, replicate 1” (7 entries from above):
FOXI3: 0.144
RBM46: -0.794
TM4SF1: 0.23
LRRC47: -1.81
MTMR12: 1.85
OR4K13: -0.113
IRS4: 1.17

Continued:
Target gene | pool no. | robust z-score, replicate 1 | robust z-score, replicate 2 | robust z-score, replicate 3 | Call
FHOD1 | 1 | 1.08 | 0.654 | 1.9 | inactive
NAB2 | 1 | 3.21 | 3.33 | 3.46 | active
LOC441576 (retired record) | 1 | 0.384 | 0.0203 | 0.149 | inactive
VPS18 | 1 | 3.65 | 3.17 | 3.03 | active
ZC3H3 | 1 | 0.463 | -1.3 | -0.442 | inactive
SIGLEC10 | 1 | -0.208 | -1.41 | -0.016 | inactive
XPNPEP1 | 1 | -0.618 | 0.134 | -0.617 | inactive
LOC441378 (retired record) | 1 | 1.39 | 1.11 | 1.52 | inactive
CLDN20 | 1 | -0.912 | -0.621 | -0.671 | inactive
GTSE1 | 1 | 1.27 | 2.6 | 1.89 | active
LINC02609 | 1 | -0.35 | 0.81 | -0.737 | inactive
FAR2 | 1 | -1.01 | 0.0272 | -1.54 | inactive
CIPC | 1 | -0.401 | -0.655 | -0.848 | inactive
IL17REL | 1 | -1.41 | -1.43 | -1.14 | inactive
PRPS1 | 1 | -0.351 | -0.384 | -0.564 | inactive
ZSWIM2 | 1 | 0.893 | 2.38 | 1.62 | inactive
OR10J1 | 1 | -0.642 | -0.53 | -0.239 | inactive
HELZ2 | 1 | -0.23 | 0.801 | 0.0124 | inactive
OR6C74 | 1 | 0.375 | -0.0478 | 0.324 | inactive
VWA3B | 1 | -0.467 | -0.241 | -0.623 | inactive
NETO2 | 1 | 0.837 | 0.235 | -0.109 | inactive
APBB1IP | 1 | 1.37 | 0.653 | 2.76 | inactive
LOC442008 (retired record) | 1 | -0.0484 | 0.724 | -0.0621 | inactive
ODR4 | 1 | 0.833 | 1.71 | 0.153 | inactive
KBTBD11 | 1 | 2.21 | 3.54 | 2.66 | active
LINC00161 | 1 | -1.45 | -1.38 | -0.841 | inactive
NLE1 | 1 | -1.96 | -0.815 | -1.57 | inactive
LOC389301 (retired record) | 1 | -0.93 | -0.773 | -0.865 | inactive
SPHAR (retired record) | 1 | 1.02 | -0.497 | 0.778 | inactive
ST3GAL2 | 1 | -1.22 | -1.36 | -1.01 | inactive
CX3CL1 | 1 | 1.36 | -0.0246 | -0.0761 | inactive
GRIN3A | 1 | 0.735 | 0.673 | 1.75 | inactive
PRAMEF3 (retired record) | 1 | 0.272 | 0.119 | 0.535 | inactive
CYP4X1 | 1 | -1.3 | -0.784 | -0.7 | inactive
PPM1M | 1 | -0.19 | -0.722 | -0.68 | inactive
PDZD11 | 1 | 0.233 | -0.562 | 0.105 | inactive
